Source: patent US20250129334A1, “LINEAGE SPECIFICATION DURING STEM CELL TRANSITION” (Amniotics AB, priority 2021, published 2025)
At least one structure is not confirmed: it was looked up by name or label, or the drawing left a doubt.

Tests used:
Format in all cases: cell-based, human
[1] = test system: HE cells; assay: HE subculture with metabolic regulators, flow cytometry of hematopoietic output; conditions: UK5099 10 μM, DCA 3 mM
Description: The RB9-CB1 human iPSC line (Woods, N.-B. et al. Brief report: efficient generation of hematopoietic precursors and progenitors from human pluripotent stem cell lines. Stem Cells 29, 1158-1164 (2011)) was co-cultured with mouse embryonic fibroblasts (MEFs, Millipore), passaged every six days and processed to form embryoid bodies (EBs) as described previously (Guibentif, C. et al. Single-Cell Analysis Identifies Distinct Stages of Human Endothelial to-Hematopoietic Transition. Cell Reports 19, 10-19 (2017)). The differentiation protocol used in this study was previously described (Ditadi, A. & Sturgeon, C. M. Directed differentiation of definitive hemogenic endothelium and hematopoietic progenitors from human pluripotent stem cells. Methods 101, 65-72 (2016)), however, small modifications were made to induce both primitive and definitive hematopoiesis, as indicated below and in FIG. 6, a. Newly-formed EBs were first kept in SFD medium supplemented with 1 ng/ml Activin A (on days 0-2) and 3 μM CHIR99021 (on day 2 only). At day 3, media was switched to “Day 3-SP34” medium supplemented with 1 ng/ml Activin A (on day 3 only) and 3 μM CHIR99021 (on day 3 only) until day 6. On day 6, media was replaced by “Day 6-SP34” medium, until day 8. In some experiments where indicated, to obtain a higher yield of HSC-like cells, EBs were kept until day 10: in this case, EBs were plated onto Matrigel (8 μg/cm2, Corning)-coated dishes on day 8 and kept until day 10. Media was changed every day, except on days 5 and 7. On day 8 or 10 (as indicated), EBs were singularized with 5-6 rounds of 5-minute incubations with TryPLE Express (Thermo Fisher Scientific). CD34^+ cells were selected using the human CD34 MicroBead kit (Miltenyi Biotec) and stained with CD34-FITC, CD73-PE, VECad-PerCPCy5.5, CD38-PC7, CD184-APC, CD45-AF700, CD43-APCH7, GPA-eF450, CD90-BV605 and the viability marker 7AAD in order to sort HE (CD34^+CD43^−CXCR4^−CD73^−CD90^+VECad^+), EHT (CD34^+CD43^intCXCR4^−CD73^−CD90^+VECad^+) and HSC-like (CD34^+CD43^+CD90^+CD38^−) cells, according to previously described markers (Guibentif, C. et al. Single-Cell Analysis Identifies Distinct Stages of Human Endothelial to-Hematopoietic Transition. Cell Reports 19, 10-19 (2017); Ditadi, A. et al. Human definitive haemogenic endothelium and arterial vascular endothelium represent distinct lineages. Nat Cell Biol 17, 580-591 (2015); and Choi, K.-D. et al. Identification of the Hemogenic Endothelial Progenitor and Its Direct Precursor in Human Pluripotent Stem Cell Differentiation Cultures. Cell Reports 2, 553-567 (2012)).
Sorted HE (40,000), EHT (30,000) and HSC-like (5-20,000) cells were plated onto Matrigel (16 μg/cm2, Corning)-coated 96-well flat bottom plates in HE medium with 1% penicillin-streptomycin and kept in a humidified incubator at 37° C., 5% C02, 4% 02 overnight. The following day (day 0), wells were washed twice with PBS and fresh HE medium was added, together with 2-DG (1 mM), UK5099 (10 μM), DCA (3 mM or 10 mM), TSA (60 nM), TCP (300 nM), ACSS2i (5 μM), C646 (10 μM), CP-640186 (5 μM) or Atorvastatin (0.5 μM), where indicated. Media was changed and drugs were added every 2 days and cells were kept in a humidified incubator at 37° C., 5% CO2, 20% O2 for 6-7 days. Pictures were taken using an Olympus IX70 microscope equipped with a CellSens DP72 camera and CellSens Standard 1.6 software (Olympus). […]

[2] = test system: HE cells; assay: Colony forming unit assay of subcultured HE cells
Method: Subcultured HE cells were treated with StemPro Accutase Cell Dissociation Reagent for 2 minutes at 37° C. and dissociated cells were resuspended in 3 ml Methocult H4230 (STEMCELL Technologies, France) (prepared according to manufacturer's instructions, with 20 mL Iscove's Modified Dulbecco's Medium containing 2.5 μg hSCF, 5 μg GM-CSF, 2.5 μg IL-3 and 500 U EPO). Each mixture was divided onto 2 wells of a non-tissue culture treated 6-well plate. Following a 12-day incubation in a humidified incubator at 37° C., 5% CO2, 20% O2, colonies were morphologically distinguished and scored. For globin analysis, colonies in Methocult wells were harvested with PBS, washed thoroughly and frozen in RLT buffer with β-mercaptoethanol. Following RNA extraction and RT (Qiagen), gene expression was assessed with taqman probes by q-PCR. The taqman probes used for this assay are HBA1/2 (Hs00361191_g1), HBE1 (Hs00362216_m1), HBG2/1 (Hs00361131_g1) and KLF1 (Hs00610592_m1).

[3] = test system: H3K9 acetylation and H4K5, 8, 12, 16 acetylation; assay: Histone acetylation staining by confocal microscopy; conditions: DCA 3 mM for 2 days

O=C(O)C(Cl)Cl [DCA, dichloroacetate]
EdU incorporation (proliferation) ([1]; 24 h pulse, days 1 and 2 of subculture): no differences in proliferation | frequency of HSC-like cells deriving from HE ([1]; 3 days subculture): not affected | proliferation of CD45+ cells deriving from HE ([1]; CTV): not affected | proliferation of the GPA+ population deriving from HE ([1]; CTV, day 3): not affected | CD43+GPA+ cell output ([1]; day 3 of HE subculture, 1-AA 4 mM, vs control): not significantly altered | CFUs ([2]; 3-day treatment): did not have an effect on CFUs | CFU-M colonies ([2]; 6-day treatment): significant increase | erythroid colony (CFU-E) formation ([2]; UK5099 3 or 6 days, DCA 6-day treatment, vs untreated): decrease | global acetylation of H3K9 or H4 [3]: no changes
